Measured values as given in patent US20250389728A1, “NOVEL CLASS OF TRIOXANE-BASED MS-CLEAVABLE CROSS-LINKERS TO ADVANCE PROTEIN-PROTEIN INTERACTION STUDIES USING CROSS-LINKING MASS SPECTROMETRY” (The Regents of the University of California, priority 2024, published 2025).

Key:
HEK293 cells = assay: In vivo TSTO cross-linking of human cells, LC-MSn (XL-MS); type: cell-based
mouse heart tissue = assay: In vivo TSTO cross-linking of mouse heart tissue, LC-MSn; conditions: 1 mM TSTO in PBS, 1 h RT

With `O=C(CCCC1OC(CCCC(=O)ON2C(=O)CCC2=O)OC(CCCC(=O)ON2C(=O)CCC2=O)O1)ON1C(=O)CCC1=O` (centres unmarked) [TSTO, Tris(2,5-dioxopyrrolidin-1-yl) 4,4′,4″-(1,3,5-trioxane-2,4,6-triyl)tributanoate] the “share of unique CSMs that were tri-links” value (HEK293 cells; 1 mM, intact cells) was 32.3%, the “total unique CSMs” value (HEK293 cells; 1 mM, intact cells, two biological replicates) was 9079 and the “mapped K-K linkages considered satisfactory (≤35 Å)” value (HEK293 cells; 1790 K-K linkages across 539 CORUM complexes) was 95%. For the same compound, the “XL-proteome, number of proteins” value (HEK293 cells; in-cell cross-linking) was 1512 proteins, the “number of PPIs in XL-proteome” value (HEK293 cells; in-cell cross-linking) was 1242 PPIs and the “total CSMs” value (mouse heart tissue) was 4,770. For the same compound, the unique bivalent cross-links (mouse heart tissue) was 921 and the unique trivalent cross-links (mouse heart tissue) was 170.
